Reference: publication PMC13065327

Chains of the proteins cited; added tags and fusions are not shown.
UniProt P35201: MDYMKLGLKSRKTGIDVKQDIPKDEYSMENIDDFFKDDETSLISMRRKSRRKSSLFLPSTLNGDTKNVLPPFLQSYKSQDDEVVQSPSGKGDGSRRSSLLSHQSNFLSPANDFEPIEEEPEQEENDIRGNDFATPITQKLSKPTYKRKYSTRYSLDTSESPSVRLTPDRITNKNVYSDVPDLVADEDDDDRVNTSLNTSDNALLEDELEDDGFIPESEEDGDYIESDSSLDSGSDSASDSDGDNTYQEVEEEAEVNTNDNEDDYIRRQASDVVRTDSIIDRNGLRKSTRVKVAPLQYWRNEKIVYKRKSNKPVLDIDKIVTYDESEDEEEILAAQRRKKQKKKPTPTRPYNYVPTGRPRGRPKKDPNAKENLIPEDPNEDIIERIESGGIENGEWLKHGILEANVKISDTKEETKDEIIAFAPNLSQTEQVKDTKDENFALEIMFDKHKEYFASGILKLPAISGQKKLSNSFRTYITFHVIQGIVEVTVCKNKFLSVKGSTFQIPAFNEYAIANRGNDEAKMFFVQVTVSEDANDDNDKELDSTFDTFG
UniProt P47037: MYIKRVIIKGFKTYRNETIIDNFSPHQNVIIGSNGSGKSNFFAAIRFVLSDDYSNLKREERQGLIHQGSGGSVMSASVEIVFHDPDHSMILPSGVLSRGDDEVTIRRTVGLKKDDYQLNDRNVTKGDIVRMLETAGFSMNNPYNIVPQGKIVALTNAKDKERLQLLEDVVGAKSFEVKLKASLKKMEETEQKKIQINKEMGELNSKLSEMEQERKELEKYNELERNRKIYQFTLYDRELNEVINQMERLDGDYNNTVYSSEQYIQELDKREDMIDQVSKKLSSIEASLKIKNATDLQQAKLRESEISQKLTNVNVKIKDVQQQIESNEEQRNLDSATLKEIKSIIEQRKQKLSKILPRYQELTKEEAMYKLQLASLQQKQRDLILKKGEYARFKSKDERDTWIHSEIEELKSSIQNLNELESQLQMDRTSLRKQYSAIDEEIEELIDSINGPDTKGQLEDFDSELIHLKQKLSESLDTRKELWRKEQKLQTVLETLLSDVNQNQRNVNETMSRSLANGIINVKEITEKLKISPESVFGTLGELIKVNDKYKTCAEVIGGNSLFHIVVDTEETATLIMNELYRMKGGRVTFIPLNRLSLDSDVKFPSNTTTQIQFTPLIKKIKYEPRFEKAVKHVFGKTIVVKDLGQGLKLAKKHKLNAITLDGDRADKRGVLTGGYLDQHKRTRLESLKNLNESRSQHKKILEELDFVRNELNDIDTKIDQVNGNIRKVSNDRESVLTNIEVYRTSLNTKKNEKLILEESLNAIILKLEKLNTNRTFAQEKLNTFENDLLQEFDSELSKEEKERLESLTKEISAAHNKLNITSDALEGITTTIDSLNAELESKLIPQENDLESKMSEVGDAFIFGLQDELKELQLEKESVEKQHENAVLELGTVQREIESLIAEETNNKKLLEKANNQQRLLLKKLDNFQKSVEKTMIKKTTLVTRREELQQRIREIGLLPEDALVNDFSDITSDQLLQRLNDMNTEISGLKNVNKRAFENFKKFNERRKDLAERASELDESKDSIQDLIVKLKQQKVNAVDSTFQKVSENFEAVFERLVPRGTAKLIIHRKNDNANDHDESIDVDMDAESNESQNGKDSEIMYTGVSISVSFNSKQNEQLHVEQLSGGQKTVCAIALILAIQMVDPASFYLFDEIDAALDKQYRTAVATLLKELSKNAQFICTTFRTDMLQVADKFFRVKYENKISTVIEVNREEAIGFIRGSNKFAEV
UniProt P40460: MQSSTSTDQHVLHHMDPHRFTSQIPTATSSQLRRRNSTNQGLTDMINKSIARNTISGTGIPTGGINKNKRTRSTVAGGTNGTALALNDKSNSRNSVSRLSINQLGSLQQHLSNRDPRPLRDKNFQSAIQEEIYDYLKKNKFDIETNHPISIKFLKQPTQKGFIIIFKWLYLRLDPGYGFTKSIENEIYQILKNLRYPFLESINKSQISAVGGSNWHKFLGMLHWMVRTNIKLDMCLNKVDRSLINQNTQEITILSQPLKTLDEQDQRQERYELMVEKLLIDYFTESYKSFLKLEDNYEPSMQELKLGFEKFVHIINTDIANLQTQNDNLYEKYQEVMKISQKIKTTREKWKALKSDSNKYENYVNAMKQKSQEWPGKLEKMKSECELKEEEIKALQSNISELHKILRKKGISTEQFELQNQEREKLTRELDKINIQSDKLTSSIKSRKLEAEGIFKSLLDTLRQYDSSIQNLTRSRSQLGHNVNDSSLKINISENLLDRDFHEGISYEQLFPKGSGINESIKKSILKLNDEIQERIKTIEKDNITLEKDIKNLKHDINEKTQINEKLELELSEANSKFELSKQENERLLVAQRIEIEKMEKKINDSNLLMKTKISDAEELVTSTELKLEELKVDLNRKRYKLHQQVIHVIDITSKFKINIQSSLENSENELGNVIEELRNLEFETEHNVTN
UniProt P36012: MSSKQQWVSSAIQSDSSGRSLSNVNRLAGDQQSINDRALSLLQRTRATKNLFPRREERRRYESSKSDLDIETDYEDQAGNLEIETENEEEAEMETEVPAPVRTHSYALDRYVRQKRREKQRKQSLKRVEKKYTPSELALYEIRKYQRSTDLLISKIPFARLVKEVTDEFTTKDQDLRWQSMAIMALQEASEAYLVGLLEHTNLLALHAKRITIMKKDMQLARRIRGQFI

T1: Dsn1-6His-3FLAG (S. cerevisiae) (UniProt P40568)
T1 sequence: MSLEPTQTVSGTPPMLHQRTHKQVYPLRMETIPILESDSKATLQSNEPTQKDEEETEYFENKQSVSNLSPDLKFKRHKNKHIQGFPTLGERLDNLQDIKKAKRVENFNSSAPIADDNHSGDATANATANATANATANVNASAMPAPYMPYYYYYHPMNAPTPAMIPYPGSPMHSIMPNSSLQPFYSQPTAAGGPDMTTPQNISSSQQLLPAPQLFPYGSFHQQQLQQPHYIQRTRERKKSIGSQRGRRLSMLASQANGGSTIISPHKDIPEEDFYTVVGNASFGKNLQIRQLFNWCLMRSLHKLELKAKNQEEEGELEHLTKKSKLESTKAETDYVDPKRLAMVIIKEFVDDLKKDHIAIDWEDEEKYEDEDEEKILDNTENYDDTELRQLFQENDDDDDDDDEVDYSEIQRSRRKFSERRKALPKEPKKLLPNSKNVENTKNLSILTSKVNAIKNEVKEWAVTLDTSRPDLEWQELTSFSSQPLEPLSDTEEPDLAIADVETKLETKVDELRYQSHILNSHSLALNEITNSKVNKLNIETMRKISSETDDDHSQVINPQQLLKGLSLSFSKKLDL

T2: Dsn1-6His-3FLAG (S. cerevisiae), P40568
T2 chain: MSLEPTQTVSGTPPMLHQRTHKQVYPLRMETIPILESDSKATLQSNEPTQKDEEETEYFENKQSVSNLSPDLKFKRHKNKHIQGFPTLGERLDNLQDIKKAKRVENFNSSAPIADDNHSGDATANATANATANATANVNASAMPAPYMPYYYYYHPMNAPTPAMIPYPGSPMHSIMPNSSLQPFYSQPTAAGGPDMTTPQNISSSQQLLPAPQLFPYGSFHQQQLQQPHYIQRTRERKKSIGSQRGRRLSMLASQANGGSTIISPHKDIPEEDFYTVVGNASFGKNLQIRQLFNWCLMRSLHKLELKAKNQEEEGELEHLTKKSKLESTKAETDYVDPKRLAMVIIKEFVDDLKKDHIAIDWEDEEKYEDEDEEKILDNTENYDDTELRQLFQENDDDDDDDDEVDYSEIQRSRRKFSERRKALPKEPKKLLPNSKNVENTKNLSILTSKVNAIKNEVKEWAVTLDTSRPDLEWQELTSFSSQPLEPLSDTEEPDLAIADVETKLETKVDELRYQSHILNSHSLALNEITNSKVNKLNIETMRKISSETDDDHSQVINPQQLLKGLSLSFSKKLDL

B1: Ipl1, P38991 1-367 (enzyme)
chain: MQRNSLVNIKLNANSPSKKTTTRPNTSRINKPWRISHSPQQRNPNSKIPSPVREKLNRLPVNNKKFLDMESSKIPSPIRKATSSKMIHENKKLPKFKSLSLDDFELGKKLGKGKFGKVYCVRHRSTGYICALKVMEKEEIIKYNLQKQFRREVEIQTSLNHPNLTKSYGYFHDEKRVYLLMEYLVNGEMYKLLRLHGPFNDILASDYIYQIANALDYMHKKNIIHRDIKPENILIGFNNVIKLTDFGWSIINPPENRRKTVCGTIDYLSPEMVESREYDHTIDAWALGVLAFELLTGAPPFEEEMKDTTYKRIAALDIKMPSNISQDAQDLILKLLKYDPKDRMRLGDVKMHPWILRNKPFWENKRL
B2: Glc7, P32598 1-312 (enzyme)
chain: MDSQPVDVDNIIDRLLEVRGSKPGQQVDLEENEIRYLCSKARSIFIKQPILLELEAPIKICGDIHGQYYDLLRLFEYGGFPPESNYLFLGDYVDRGKQSLETICLLLAYKIKYPENFFILRGNHECASINRIYGFYDECKRRYNIKLWKTFTDCFNCLPIAAIIDEKIFCMHGGLSPDLNSMEQIRRVMRPTDIPDVGLLCDLLWSDPDKDIVGWSENDRGVSFTFGPDVVNRFLQKQDMELICRAHQVVEDGYEFFSKRQLVTLFSAPNYCGEFDNAGAMMSVDESLLCSFQILKPAQKSLPRQAGGRKKK
B3: Csm1 (protein, UniProt P25651 1-190)
chain: MDPLTVYKNSVKQQIDSADLLVANLVNENFVLSEKLDTKATEIKQLQKQIDSLNAQVKELKTQTSQQAENSEVIKDLYEYLCNVRVHKSYEDDSGLWFDISQGTHSGGSSDDYSIMDYKLGFVKGQAQVTEVIYAPVLKQRSTEELYSLQSKLPEYLFETLSFPLSSLNQFYNKIAKSLNKKREKKDETE
B4: Mam1 (protein, UniProt P40065 1-302)
chain: MREKRTISNKDTNYLKFPNKLQRYSRFLSRKISNTSPEKQPKKNIKEHCLSSYHKEHSVKPKQNSGNVAAKEDKDTQHLQNNVANEEATECLTRSNLKKLQEKIFDRELNDIACDHCLCSTENRRDIKYSRLWFLFELEMSENWNENLRLSCYNKYVYSAIDESWKMENILLKEQEKHYEYFPIGQLLIPNNIDYTNKQKRKENIEDLTIEIDSIIETNHQKKRFLPQSVLIKREDEIAFDDFHLDARKVLNDLSATSENPFSSSPNTKKIKSKGKTLEVVPKKKNKKIIGALERKLHIDEN

Assays:
Test in all cases: affinity purification with mass spectrometry; anti-FLAG antibody on Protein G Dynabeads, Dsn1-6His-3FLAG from lysates of SK1 cells at mitotic metaphase, meiotic prophase, metaphase I and metaphase II (SynSAC, 250 uM ABA); BH0.15 buffer (150 mM KCl, 25 mM HEPES-KOH pH 8.0, 2 mM MgCl2, 0.1% NP-40), 3 hr at 4 C; DIA-MS of eluates, 95% phospho-enriched; no tag control
[1] = biological target: T1, Dsn1-6His-3FLAG (S. cerevisiae)
[2] = biological target: T2, Dsn1-6His-3FLAG (S. cerevisiae), P40568; details: remark: other sources report otherwise
[3] = biological target: T1, Dsn1-6His-3FLAG (S. cerevisiae); remark: listed apart in the source

| Molecule | binding [1] | other results |
| --- | --- | --- |
| Mif2 (from UniProt P35201 1-549) | binds |  |
| Smc3 (from UniProt P47037 1-1230) | binds |  |
| Ndc80 (from UniProt P40460 1-691) | binds |  |
| Cse4 (from UniProt P36012 1-229) | binds |  |
| B1 |  | binding [2]: binds |
| B2 |  | binding [2]: binds |
| B3 |  | binding [3]: binds |
| B4 |  | binding [3]: binds |

Read-outs that look alike come from different tables or passages of the source. These are yes or no findings as the source states them, for the method shown. Binding seen in cells or lysates may run through a third protein. These calls come from enrichment with a bait or labelling near it, and not all partners need be listed. Tags and fused reporters may be left off the sequences shown.
